To fix the notation:
B1: calpain-3 (protein, UniProt Q64691 1-821)
chain: MPTVISPTVAPRTGAEPRSPGPVPHPAQGKTTEAGGGHPSGIYSAIISRNFPIIGVKEKTFEQLRRKCLEKKVLYLDPEFPPDETSLFYSQKFPIQFVWKRPPEICENPRFIIGGANRTDICQGDLGDCWFLAAIACLTLNERLLFRVIPHDQSFTENYAGIFHFQFWRYGDWVDVVIDDCLPTYNNQLVFTKSNHRNEFWSALLEKAYAKLHGSYEALKGGNTTEAMEDFTGGVTEFFEIKDAPSDMYKIMRKAIERGSLMGCSIDDGTNMTYGTSPSGLNMGELIARMVRNMDNSLLRDSDLDPRGSDDRPSRTIVPVQYETRMACGLVKGHAYSVTGLEEALFKGEKVKLVRLRNPWGQVEWNGSWSDGWKDWSFVDKDEKARLQHQVTEDGEFWMSYDDFVYHFTKLEICNLTADALESDKLQTWTVSVNEGRWVRGCSAGGCRNFPDTFWTNPQYRLKLLEEDDDPEDSEVICSFLVALMQKNRRKDRKLGANLFTIGFAIYEVPKEMHGNKQHLQKDFFLYNASKARSKTYINMREVSQRFRLPPSEYVIVPSTYEPHQEGEFILRVFSEKRNLSEEAENTISVDRPVKKKKNKPIIFVSDRANSNKELGVDQEAEEGKDKAGPEKRGETPQPRPGHTDQESEEQQQFRNIFRQIAGDDMEICADELKNVLNTVVNKHKDLKTQGFTLESCRSMIALMDTDGSGRLNLQEFHHLWKKIKAWQKIFKHYDTDHSGTINSYEMRNAVNDAGFHLNSQLYDIITMRYADKHMNIDFDSFICCFVRLEGMFRAFNAFDKDGDGIIKLNVLEWLQLTMYA
B2: affixin (protein, UniProt Q9ES46 1-365)
chain: MSSAPPRSPTPRAPKMKKDESFLGKLGGTLARKKKTREVTDLQEEGKSAINSPMAPALVDIHPEDTQLEENEERTMIDPTSREDPKFKELVKVLLDWINDVLAEERIIVKQLEEDLYDGQVLQKLLEKLAHCKLNVAEVTQSEIGQKQKLQTVLEAVQDLLRPHGWPLRWNVDSIHGKNLVAILHLLVSLAMHFRAPIHLPEHVTVQVVVVRKREGLLHSSHISEELTTTTEIMMGRFERDAFDTLFDHAPDKLNLVKKSLITFVNKHLNKLNLEVTDLETQFADGVYLVLLLGLLEDYFVPLHNFYLTPDSFDQKVHNVAFAFELMLDGGLKKPKARPEDVVNLDLKSTLRVLYTLFTKYKDVE

Chains of the proteins cited; added tags and fusions are not shown.
UniProt O75923: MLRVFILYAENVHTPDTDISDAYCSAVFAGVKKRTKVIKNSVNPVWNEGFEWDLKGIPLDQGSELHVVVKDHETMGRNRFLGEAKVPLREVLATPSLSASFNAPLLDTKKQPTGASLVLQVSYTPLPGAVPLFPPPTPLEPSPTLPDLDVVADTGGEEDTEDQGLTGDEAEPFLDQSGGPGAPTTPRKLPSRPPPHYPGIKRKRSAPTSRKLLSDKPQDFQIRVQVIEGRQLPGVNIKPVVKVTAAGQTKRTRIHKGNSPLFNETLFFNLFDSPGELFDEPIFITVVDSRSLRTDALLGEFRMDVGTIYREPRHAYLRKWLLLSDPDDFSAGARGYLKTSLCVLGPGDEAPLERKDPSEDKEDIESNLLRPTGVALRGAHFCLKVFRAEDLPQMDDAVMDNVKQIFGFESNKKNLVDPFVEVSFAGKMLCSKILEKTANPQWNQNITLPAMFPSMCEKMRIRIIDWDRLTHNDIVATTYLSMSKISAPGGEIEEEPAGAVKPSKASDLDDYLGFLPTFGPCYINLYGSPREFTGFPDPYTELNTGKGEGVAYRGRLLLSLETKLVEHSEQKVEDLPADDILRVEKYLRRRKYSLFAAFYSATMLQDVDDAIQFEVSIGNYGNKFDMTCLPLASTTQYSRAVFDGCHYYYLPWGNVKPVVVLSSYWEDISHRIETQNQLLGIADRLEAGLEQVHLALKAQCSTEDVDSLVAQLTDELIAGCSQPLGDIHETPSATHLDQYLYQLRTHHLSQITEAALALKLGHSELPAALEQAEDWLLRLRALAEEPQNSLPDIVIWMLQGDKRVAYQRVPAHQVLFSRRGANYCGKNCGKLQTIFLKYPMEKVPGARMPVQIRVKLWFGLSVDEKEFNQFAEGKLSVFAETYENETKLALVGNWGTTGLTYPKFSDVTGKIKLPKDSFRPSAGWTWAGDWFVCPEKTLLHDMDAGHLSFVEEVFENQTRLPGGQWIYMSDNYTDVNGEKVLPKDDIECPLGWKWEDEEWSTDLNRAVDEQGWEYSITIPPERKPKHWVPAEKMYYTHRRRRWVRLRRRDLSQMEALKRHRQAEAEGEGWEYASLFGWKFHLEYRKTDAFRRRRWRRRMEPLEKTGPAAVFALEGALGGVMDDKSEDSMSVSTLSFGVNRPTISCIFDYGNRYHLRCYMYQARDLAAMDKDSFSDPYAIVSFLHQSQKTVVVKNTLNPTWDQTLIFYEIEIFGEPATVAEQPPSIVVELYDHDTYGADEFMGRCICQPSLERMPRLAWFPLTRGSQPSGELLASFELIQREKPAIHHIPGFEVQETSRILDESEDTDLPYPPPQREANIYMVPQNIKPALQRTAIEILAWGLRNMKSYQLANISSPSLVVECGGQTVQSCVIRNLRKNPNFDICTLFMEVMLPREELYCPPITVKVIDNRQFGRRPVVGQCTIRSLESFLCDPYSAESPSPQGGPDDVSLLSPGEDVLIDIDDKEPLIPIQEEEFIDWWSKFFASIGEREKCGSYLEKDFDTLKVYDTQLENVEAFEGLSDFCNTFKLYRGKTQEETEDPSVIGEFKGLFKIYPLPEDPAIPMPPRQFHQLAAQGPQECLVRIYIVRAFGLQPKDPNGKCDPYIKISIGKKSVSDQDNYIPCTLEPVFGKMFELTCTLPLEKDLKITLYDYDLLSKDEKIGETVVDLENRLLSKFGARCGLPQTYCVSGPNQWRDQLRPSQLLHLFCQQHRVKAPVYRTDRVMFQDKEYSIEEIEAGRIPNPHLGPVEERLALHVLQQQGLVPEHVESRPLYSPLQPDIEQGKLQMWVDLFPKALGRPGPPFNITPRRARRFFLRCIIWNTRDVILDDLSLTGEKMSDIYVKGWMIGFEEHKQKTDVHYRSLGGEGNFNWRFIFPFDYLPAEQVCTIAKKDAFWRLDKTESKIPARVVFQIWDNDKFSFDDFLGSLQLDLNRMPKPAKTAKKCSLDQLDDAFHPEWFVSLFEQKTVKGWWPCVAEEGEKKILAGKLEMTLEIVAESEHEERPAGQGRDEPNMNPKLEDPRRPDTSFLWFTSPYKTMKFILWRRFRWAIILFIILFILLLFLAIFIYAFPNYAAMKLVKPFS
UniProt P07356: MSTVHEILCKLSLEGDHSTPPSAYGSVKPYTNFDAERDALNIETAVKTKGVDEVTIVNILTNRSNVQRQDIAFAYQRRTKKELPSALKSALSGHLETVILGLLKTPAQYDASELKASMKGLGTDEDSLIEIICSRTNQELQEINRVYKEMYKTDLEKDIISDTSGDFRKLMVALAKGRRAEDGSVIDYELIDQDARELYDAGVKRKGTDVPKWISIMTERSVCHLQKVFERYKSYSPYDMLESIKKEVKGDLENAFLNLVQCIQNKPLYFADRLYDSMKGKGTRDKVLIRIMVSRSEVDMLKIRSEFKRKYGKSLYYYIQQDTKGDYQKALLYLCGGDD

These are yes or no findings as the source states them, for the method shown. In cells and extracts the contact can be indirect. A yes stands for co-enrichment or nearness to the bait. Other partners may have been found.

This assay has as its target His-myc-dysferlin (UniProt O75923). The assay is described as follows: affinity purification with mass spectrometry; His-myc-dysferlin from HEK293T lysate held on protein A-Sepharose beads coated with anti-myc monoclonal antibody, washed, incubated with mouse skeletal muscle homogenate; SDS-PAGE, in-gel trypsin digestion, LC-MS/MS; control: non-transfected HEK293T extract; repeated twice; only the target purified.
With AHNAK (from UniProt E9Q616 1-5656), the binding result was “binds”.
Regarding annexin A2 (from UniProt P07356 1-339), the binding result is listed as “binds”.
Turning to B1, the binding entry is recorded as “binds”.
For the molecule B2, the binding result is on record as “binds”.
